In patent US6355416B1, “Assay for the measurement of DNA synthesis rates” (The George Washington University, priority 1997, dated 2002):

Tested on: HEP G2 cells
[1] = 33% labeled glycine, after four days of incubation, HEP G2 DNA
[2] = growth experiment, continuous labeling with 3.3% 1-13C-glycine over five days, ± SE of fitted parameter
[3] = wash out over nine days after one-day pulse of 9% enriched glycine, Day 0 not used

## NC[13C](=O)O [1-^13C-glycine]
[1]
  dA enrichment δ13C: +375 %‰
  dG enrichment δ13C: +321 %‰
HEP G2 DNA
  selectivity of label incorporation into DNA bases: selectively incorporated into purines and not into pyrimidines
[2]
  doubling time for the HEP G2 cells using dG kinetics: 2.2 ± 1.2 days
  doubling time for the HEP G2 cells using the kinetics of dA enrichment: 2.3 ± 0.4 days
Over five days of labeling with 3.3% 1-13C-glycine, mean±SD, N=7
  δ13C value of dT: −15.8 %‰
[3]
  doubling time from wash out of label, dA: 2.6 ± 0.3 days
  doubling time from wash out of label, dG: 2.4 ± 0.1 days
